The source of these data is publication PMC8710002.

Protein sequences, listed by entry. Tags and fused reporters are not part of them. Lines headed by an entry give the natural chain unless they say otherwise; changes in a name come on top.
UniProt P47736: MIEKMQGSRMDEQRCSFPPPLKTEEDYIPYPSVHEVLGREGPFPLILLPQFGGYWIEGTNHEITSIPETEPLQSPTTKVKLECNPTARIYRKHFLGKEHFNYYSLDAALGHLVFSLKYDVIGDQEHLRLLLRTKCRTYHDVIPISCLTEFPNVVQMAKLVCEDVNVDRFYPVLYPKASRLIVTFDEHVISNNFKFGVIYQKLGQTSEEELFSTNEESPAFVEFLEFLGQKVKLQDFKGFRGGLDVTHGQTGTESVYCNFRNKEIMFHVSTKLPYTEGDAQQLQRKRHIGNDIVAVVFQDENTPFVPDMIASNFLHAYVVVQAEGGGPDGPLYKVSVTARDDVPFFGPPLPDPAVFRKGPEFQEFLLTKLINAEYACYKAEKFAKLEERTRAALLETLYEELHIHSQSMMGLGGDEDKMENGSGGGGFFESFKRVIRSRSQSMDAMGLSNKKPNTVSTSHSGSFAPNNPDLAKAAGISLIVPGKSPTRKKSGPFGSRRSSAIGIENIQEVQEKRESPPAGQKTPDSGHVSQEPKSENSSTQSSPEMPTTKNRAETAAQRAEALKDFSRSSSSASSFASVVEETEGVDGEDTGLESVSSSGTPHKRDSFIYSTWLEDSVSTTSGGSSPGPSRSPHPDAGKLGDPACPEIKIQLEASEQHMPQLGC
UniProt Q05086: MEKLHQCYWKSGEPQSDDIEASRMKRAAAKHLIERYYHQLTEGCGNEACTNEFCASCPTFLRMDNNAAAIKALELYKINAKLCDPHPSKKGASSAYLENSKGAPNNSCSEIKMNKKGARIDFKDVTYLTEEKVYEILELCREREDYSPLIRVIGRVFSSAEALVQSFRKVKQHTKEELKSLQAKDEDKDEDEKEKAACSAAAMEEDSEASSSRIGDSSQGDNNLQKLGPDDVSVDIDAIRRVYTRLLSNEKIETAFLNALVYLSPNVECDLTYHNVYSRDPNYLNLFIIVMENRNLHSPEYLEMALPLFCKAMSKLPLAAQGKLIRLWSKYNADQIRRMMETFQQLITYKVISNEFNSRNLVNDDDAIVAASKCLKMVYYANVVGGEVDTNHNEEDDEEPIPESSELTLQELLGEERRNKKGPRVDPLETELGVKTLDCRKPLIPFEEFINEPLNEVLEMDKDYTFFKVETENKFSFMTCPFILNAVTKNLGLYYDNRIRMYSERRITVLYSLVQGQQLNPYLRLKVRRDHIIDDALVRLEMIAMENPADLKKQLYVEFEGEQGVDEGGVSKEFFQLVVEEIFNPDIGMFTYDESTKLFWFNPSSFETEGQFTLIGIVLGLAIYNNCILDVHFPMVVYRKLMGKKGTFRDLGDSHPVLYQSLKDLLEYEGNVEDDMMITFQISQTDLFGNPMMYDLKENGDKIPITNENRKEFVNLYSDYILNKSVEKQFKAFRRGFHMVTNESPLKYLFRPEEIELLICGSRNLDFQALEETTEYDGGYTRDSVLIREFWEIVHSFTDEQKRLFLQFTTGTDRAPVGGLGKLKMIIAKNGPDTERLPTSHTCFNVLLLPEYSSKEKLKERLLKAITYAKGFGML

Assay [1] concerns the target Ras-related regulatory protein 1 GTPase-activating protein (Rap1GAP) (human (endogenous in HeLa, SiHa and C33A)) (UniProt P47736). Kind of assay: co-IP; total cell lysate (RIPA) of HPV-negative C33A cells; anti-Rap1GAP antibody at 4 °C overnight, protein A + G agarose beads at room temperature for 3 h, three washes with PBS; immunoblot with anti-E6AP antibody. In general terms: A western blot detects proteins with antibodies after separation by electrophoresis.

Assay [2] has the same target. Kind of assay: co-IP; total cell lysates (RIPA) of HPV-positive HeLa and SiHa cells; anti-Rap1GAP antibody at 4 °C overnight, protein A + G agarose beads at room temperature for 3 h, three washes with PBS; immunoblot with anti-E6AP antibody.

These are yes or no findings as the source states them, for the method shown. Binding seen in cells or lysates may run through a third protein. Some entries that bind do so weakly or less than the wild type.

“E6-associated protein (E6AP) (from UniProt Q05086 1-875) (enzyme)”: the binding entry is “no binding (condition: in HPV-negative C33A cells)” in assay [1] and “binds” in assay [2].
